Data as given in PubChem BioAssay AID1259425 (University of Nebraska Medical Center, 2018).
The deposit covers about 14,000 reagents; this is an unselected part. The record does not give: the time to read-out.

- Test: 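Find knockdowns that reproduce the gene expression pattern seen when KSR1 is lost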 (primary screen)
- Cell system: HCT116 human colon cancer cells
- Reagent: siRNA pool against human genes, 50 nM siRNA
- Detection: 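After 50 nM siRNA pool, branched-DNA assay measures six marker transcripts per well, minus blank, normalised to the geometric mean of two housekeeping transcripts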
- Scale: BNIP3L mRNA: higher = more BNIP3L transcript after knockdown; NDRG1 mRNA: higher = more NDRG1 transcript after knockdown; BNIP3 mRNA: higher = more BNIP3 transcript after knockdown; ALDOC mRNA: higher = more ALDOC transcript after knockdown; ACSL5 mRNA: higher = more ACSL5 transcript after knockdown

target gene	PubChem SID	BNIP3L mRNA, set 1	NDRG1 mRNA, set 1	BNIP3 mRNA, set 1	ALDOC mRNA, set 1	ACSL5 mRNA, set 1
NKX2-1	SID363994433	0.0698	0.227	0.229	0.0131	0.185
NIPBL	SID363999459	0.179	0.358	0.178	0.0359	0.208
HES4	SID364002059	0.0535	0.163	0.339	0.0275	0.402
AZU1	SID363992922	0.0424	0.6	0.398	0.00968	0.466
CAVIN3	SID364004641	0.0744	0.0758	0.242	0.0262	0.2
PEX11B	SID363994907	0.0816	0.124	0.298	0.0194	0.116
CENPO	SID364002795	0.164	0.216	0.338	0.0362	0.236
FIG4	SID363999139	0.102	0.215	0.321	0.0442	0.16
OBP2B	SID363998953	0.0527	0.151	0.281	0.0105	0.0452
RPS6KB1	SID363994299	0.248	0.036	0.266	0.012	0.0809
PJA1	SID364002422	0.123	0.257	0.403	0.0341	0.145
SATB1	SID363994122	0.144	0.05	0.35	0.0166	0.026
NTN3	SID363997007	0.156	0.723	0.631	0.0513	0.232
S1PR4	SID363994839	0.147	0.19	0.184	0.0119	0.428
COA1	SID364000891	0.0984	0.167	0.245	0.00309	0.145
ARID1A	SID364001083	0.0762	0.0856	0.285	0.012	0.171
PMCHL1	SID364003675	0.162	0.253	0.37	0.0319	0.234
SLC15A3	SID364000212	0.0595	0.0996	0.208	0.0393	0.209
GPCPD1	SID364001425	0.207	0.452	0.301	0.0637	0.394
TNS4	SID364004238	0.173	0.193	0.278	0.0901	0.176
TTR	SID363991702	0.106	0.105	0.269	0.0259	0.137
AP4E1	SID363997989	0.159	0.153	0.311	0.0426	0.0702
F5	SID363991466	0.075	0.106	0.395	0.0143	0.3
PDZRN4	SID363998484	0.103	0.17	0.249	0.0259	0.0927
ZNF419	SID364002981	0.106	0.0811	0.333	0.0413	0.155
LUZP1	SID364004393	0.125	0.323	0.324	0.0261	0.235
SMPDL3B	SID363998886	0.156	0.714	0.379	0.0362	0.157
GPN3	SID364000018	0.0657	0.303	0.242	0.0145	0.219
KCNMB4	SID363998913	0.0865	0.0471	0.289	0.0336	0.128
RRAGB	SID363996910	0.0734	0.37	0.429	0.0361	0.234
CACNA2D2	SID363996881	0.104	0.311	0.22	0.0506	0.434
PPP3CA	SID363992228	0.0831	0.282	0.281	0.0391	0.159
TM7SF3	SID364000190	0.143	0.385	0.492	0.0329	0.31
NLRP14	SID364004885	0.0319	0.0536	0.165	-0.0072	0.128
EXO5	SID364002548	0.0436	0.223	0.281	0.0416	0.207
CSAG1	SID364004776	0.146	0.881	0.389	0.0362	0.208
CPA1	SID363993081	0.121	0.217	0.41	0.0261	0.182
DCLK2	SID364004730	0.291	0.104	0.327	0.00874	0.347
CABLES2	SID364003553	0.215	0.467	0.466	0.0527	0.343
CPA4	SID364000052	0.126	0.395	0.363	0.0164	0.347
ACVR2A	SID363992843	0.0883	0.0436	0.104	0.013	0.198
PPP1R3E	SID364005073	0.107	0.201	0.288	0.0314	0.125
RRM2	SID363992331	0.184	1.15	0.347	0.0221	0.284
ULBP1	SID364003322	0.194	0.33	0.419	0.0291	0.13
GINS1	SID364001985	0.138	0.404	0.348	0.0419	0.239
KLC1	SID363996452	0.0783	0.293	0.296	0.018	0.293
CLDN7	SID363992590	0.0866	0.144	0.378	0.0198	0.166
NOC3L	SID364002438	0.13	0.102	0.395	0.0443	0.231
MET	SID363991578	0.0891	0.185	0.25	0.0378	0.188
INTS6	SID363998086	0.198	0.527	0.359	0.342	0.16
TJP2	SID363995770	0.136	0.313	0.386	0.0282	0.394
ROPN1	SID364000373	0.235	0.313	0.375	0.0187	0.152
MYO3A	SID364000311	0.0797	0.645	0.56	0.00544	0.36
CXCL10	SID363992821	0.104	0.0669	0.429	0.00697	0.125
IRAG1	SID363996914	0.224	0.268	0.601	0.0471	0.157
MRPS7	SID363999761	0.134	0.903	0.393	0.0167	0.314
PHLDA2	SID363994427	0.156	0.352	0.283	0.0497	0.165
SRCIN1	SID364003347	0.116	0.343	0.215	0.0137	0.217
TNRC6C	SID364001316	0.0664	0.103	0.276	0.0364	0.111
SUMF2	SID363999474	0.178	0.139	0.438	0.0255	0.169
GAS2L1	SID363997286	0.0921	0.174	0.252	0.0248	0.101
PHF6	SID364003921	0.21	0.0466	0.238	0.0172	0.094
MCM7	SID363996785	0.0727	0.113	0.265	0.0221	0.142

Not a retest: entries from further up.
target gene	PubChem SID	BNIP3L mRNA, set 1	NDRG1 mRNA, set 1	BNIP3 mRNA, set 1	ALDOC mRNA, set 1	ACSL5 mRNA, set 1
MET	SID363991578	0.0891	0.185	0.25	0.0378	0.188
INTS6	SID363998086	0.198	0.527	0.359	0.342	0.16
TJP2	SID363995770	0.136	0.313	0.386	0.0282	0.394
